In publication PMC8997990:
For at least one entry, the source does not settle the construct or the ends of the probe. A negative result means that nothing was seen under these conditions.

Sequences of proteins named here, by UniProt entry; tags and fusion partners are left off. Residues count along the entry.
UniProt Q12778, 158-258: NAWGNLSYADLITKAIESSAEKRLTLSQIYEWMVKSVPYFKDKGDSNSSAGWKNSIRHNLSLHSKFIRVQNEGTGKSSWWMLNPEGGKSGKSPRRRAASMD

How the values were obtained:
Test in all cases: EMSA
GST-FOXO1 = GST-FOXO1 (UniProt Q12778); conditions: FOXO1 alone, no nuclear extract; 20 mM Tris pH 7.5, 2 mM NaCl, 2 mM EDTA, 10% glycerol, 2 mM DTT, 0.2 ug poly(dI/dC), 20 min at 4 C; 7% native gel; recombinant protein; protein details: N-terminal GST; label: 3' biotin
[1] = biological target: GST-FOXO1-FK (forkhead domain) (UniProt Q12778); conditions: FK domain alone, no nuclear extract; 20 mM Tris pH 7.5, 2 mM NaCl, 2 mM EDTA, 10% glycerol, 2 mM DTT, 0.2 ug poly(dI/dC), 20 min at 4 C; 7% native gel; recombinant protein; residues 158-258; protein details: N-terminal GST; label: 3' biotin
GST = GST alone, no nuclear extract (legend gives lane 4, also listed as a GST + extract lane); 20 mM Tris pH 7.5, 2 mM NaCl, 2 mM EDTA, 10% glycerol, 2 mM DTT, 0.2 ug poly(dI/dC), 20 min at 4 C; 7% native gel; recombinant protein; label: 3' biotin

Measured: binding result

TAGGCCAAGGGCCTTGGGGCTCT (double strand) [mouse Sftpc promoter -186/-163 NKX2.1 site probe]
no binding: all assays above
